## Cleaved PARP after 72 h of treatment

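Human melanoma cell lines in 1,536-well plates were treated with a pair of drugs for 72 h, then fixed, stained and imaged. Each value is the cleaved-PARP-positive fraction of nuclei relative to DMSO-treated wells, in %, so that 100 equals the control and higher values mean more apoptosis. Concentrations were fixed for each drug; these are the higher of two levels. No replicate spread is given; individual values may be noisy. The marker varies much from line to line, for technical or biological reasons.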
This is part of the screen, not chosen by result.
An entry leaves out what has no value listed here.
A dash means that no value is listed here.

Drugs:
XAV939 (10000 nM): Oc1nc(-c2ccc(C(F)(F)F)cc2)nc2c1CSCC2
lestaurtinib (20 nM): C[C@]12O[C@H](C[C@]1(O)CO)n1c3ccccc3c3c4c(c5c6ccccc6n2c5c31)CNC4=O
OSU-03012 (5000 nM): NCC(=O)Nc1ccc(-n2nc(C(F)(F)F)cc2-c2ccc3c(ccc4ccccc43)c2)cc1
BMS-536924 (1000 nM): Cc1cc(N2CCOCC2)cc2[nH]c(-c3c(NC[C@@H](O)c4cccc(Cl)c4)cc[nH]c3=O)nc12
SU6656 (2000 nM): CN(C)S(=O)(=O)c1ccc2c(c1)/C(=C/c1cc3c([nH]1)CCCC3)C(=O)N2
gemcitabine (2 nM): Nc1ccn([C@@H]2O[C@H](CO)[C@@H](O)C2(F)F)c(=O)n1
stibogluconate (10000 nM): O=C(O)[C@@H]1[O][Sb](=[O])([O][Sb]2(=[O])[O][C@H]([C@H](O)CO)[C@H](O)[C@H](C(=O)O)[O]2)[O][C@H]([C@H](O)CO)[C@@H]1O (stereo partly shown)
veliparib (7000 nM): C[C@]1(c2nc3c(C(N)=O)cccc3[nH]2)CCCN1

| # | Drugs | COLO 829 | COLO 792 | MZ2-MEL | SK-MEL-30 | WM1716 | WM3619 |
|---|---|---|---|---|---|---|---|
| 1 | XAV939 and gemcitabine | 113 | 161 | 111 | 165 | 116 | 524 |
| 2 | SU6656 and gemcitabine | 561 | 182 | 274 | 170 | 114 | 161 |
| 3 | stibogluconate and veliparib | 170 | 34.0 | 150 | 79.0 | 59.4 | 89.2 |
| 4 | lestaurtinib and SU6656 | 111 | 121 | 101 | 108 | 28.8 | 133 |
| 5 | BMS-536924 and OSU-03012 | 83.1 | 204 | 200 | 767 | 66.6 | 157 |
| 6 | OSU-03012 and SU6656 | 142 | 79.0 | 104 | 1580 | 36.7 | 142 |
| 7 | lestaurtinib and BMS-536924 | 45.8 | 1140 | 132 | 161 | 30.8 | 96.6 |
| 8 | veliparib and XAV939 | 137 | 88.1 | 186 | 106 | 334 | 163 |
| 9 | stibogluconate and SU6656 | 133 | 121 | 530 | 158 | 154 | 107 |
| 10 | gemcitabine and veliparib | 658 | 110 | 122 | 94.0 | 68.4 | 184 |
| 11 | stibogluconate and OSU-03012 | 111 | 186 | 256 | 1990 | 143 | 112 |
| 12 | XAV939 and BMS-536924 | 145 | 476 | - | 98.3 | 128 | 94.7 |
| 13 | veliparib and OSU-03012 | 160 | 207 | 135 | 528 | 79.3 | 142 |
| 14 | SU6656 and XAV939 | 221 | 121 | 306 | 73.1 | 435 | 159 |
| 15 | stibogluconate and XAV939 | 91.5 | 138 | 69.6 | 94.5 | 593 | 119 |
| 16 | stibogluconate and BMS-536924 | 116 | 125 | 129 | 35.9 | 120 | 86.9 |
| 17 | stibogluconate and lestaurtinib | 47.7 | 171 | 26.7 | 136 | 60.7 | 93.0 |
| 18 | SU6656 and BMS-536924 | 148 | 415 | 419 | 105 | 167 | 96.1 |
| 19 | XAV939 and lestaurtinib | 77.8 | 105 | 60.3 | 139 | 126 | 101 |
| 20 | veliparib and lestaurtinib | 132 | 178 | 75.1 | 96.7 | 303 | 96.8 |
| 21 | BMS-536924 and veliparib | 114 | 122 | - | 171 | 292 | 117 |
| 22 | veliparib and SU6656 | 112 | 187 | 78.5 | 157 | 184 | 306 |
| 23 | stibogluconate and gemcitabine | 697 | 112 | 145 | 176 | 121 | 196 |
| 24 | gemcitabine and lestaurtinib | 461 | 1490 | 305 | 148 | 429 | 259 |
| 25 | BMS-536924 and gemcitabine | 342 | 228 | 300 | 97.0 | 928 | 145 |
| 26 | OSU-03012 and gemcitabine | 487 | 229 | 176 | 825 | 181 | 242 |

For reference, 3 entries once more:

{"drugs": "veliparib and lestaurtinib", "COLO 829": 132, "COLO 792": 178, "MZ2-MEL": 75.1, "SK-MEL-30": 96.7, "WM1716": 303, "WM3619": 96.8}
{"drugs": "OSU-03012 and SU6656", "COLO 829": 142, "COLO 792": 79.0, "MZ2-MEL": 104, "SK-MEL-30": 1580, "WM1716": 36.7, "WM3619": 142}
{"drugs": "stibogluconate and SU6656", "COLO 829": 133, "COLO 792": 121, "MZ2-MEL": 530, "SK-MEL-30": 158, "WM1716": 154, "WM3619": 107}

From a melanoma drug combination screen (doi:10.1371/journal.pone.0140310); values rounded.